The experiment can be described thus: qHTS Assay for Lipid Storage Modulators in Drosophila S3 Cells.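 On cell number change: cells counted by Cell Tracker Red CMTPX staining in the red channel.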 The following applies: BODIPY lipid droplet fluorescence, 18-24 h; for cell number change: measured here: cell count max response, cells fed with added oleic acid. The method in brief: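 Drosophila S3 cells loaded with oleic acid (400 uM, as added) and compounds at several concentrations; lipid droplets imaged by 488-nm laser-scanning cytometry, 500–530 nm intensity and object ratio to cell channel. Percent activity normalized to 20 uM Triacsin C.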
A general note: Quantitative high-throughput screening tests each substance at several concentrations.

[1] abbreviates: measured here: cell number channel AC50, cells fed with added oleic acid.
Setting [2] is: measured here: lipid fluorescence (Fed channel) AC50, cells fed with added oleic acid.

Some of the results follow. The main result of the screen is listed elsewhere. These columns were measured beside it and carry no call. Compounds called inactive in the main read-out are mostly missing here. Words in brackets tell the shape of the fitted curve; partial curves, single points and poor fits give uncertain potencies.

Broadly, the AC50 is the concentration at which the activity in the assay is half-maximal. With `COc1ccc(/C=C(\NC(=O)c2cccs2)C(=O)N2CCOCC2)cc1OC`, the AC50 reads like this: under setting [1], 4.61 µM [rising, single point]; under setting [2], 0.00411 µM [rising, full curve, poor fit]. On to `CS(=O)(=O)N1CCN(c2nc(-c3ccccc3)cs2)CC1`, for which the cell number change was 28.8%. On to `COc1ccc(-n2c(SCC(N)=O)nc3sc4c(c3c2=O)CCC4)cc1`, for which the cell number change was -7.95%. Also, the AC50 under setting [2] was 0.461 µM [falling, full curve, poor fit].

As for `CC(=O)Nc1ccc(SCC(=O)Nc2ccc(Cl)cn2)cc1`, the cell number change worked out at 5.63%. As for `CC1(C)Cc2c(sc3c2c(=N)n(Cc2ccco2)c(=O)n3Cc2ccccc2)CO1`, the cell number change is -25.1%. Moreover, the AC50 under setting [2] is 2.06 µM [rising, partial curve].

In the case of `COc1cc(/C=N/n2c(=S)[nH]nc(C)c2=O)cc([N+](=O)[O-])c1O`, the cell number change is -10%. Under setting [2], the AC50 is 4.11 µM [falling, partial curve, poor fit]. `Cc1[nH]c2ccccc2c1C(=O)CSc1ccc(F)cc1`: the cell number change came to 4.59%. Also, under setting [2], the concentration at half-maximal activity (AC50) was 0.082 µM [rising, full curve, poor fit]. As for `Cn1c(C(O)c2ccccc2F)nc(Cl)c1Cl` (stereo not drawn), the cell number change was determined as 0.28%. On to `N/C(Cc1cccs1)=N\OC(=O)COc1ccc(Br)cc1Cl`, for which the cell number change is -26%.

With `Cc1ccccc1-c1nnc(SCC(=O)Nc2cccc(C)c2C)o1`, the AC50 is 6.51 µM [rising, partial curve, poor fit] under setting [1] and 0.517 µM [rising, single point] under setting [2]. Consider `Cc1c(C#N)c(NC(=O)CCl)n(Cc2cccs2)c1C`, for which the cell number change was -14.2%. Also, under setting [2], the AC50 is 0.103 µM [falling, full curve, poor fit].

With `CCCCCC(O)(c1ccc(OC)cc1)C(CN1CCOCC1)c1ccccc1` (stereo not drawn), the cell number change turned out to be 72.2%. Also, the AC50 under setting [1] was 20.6 µM [rising, partial curve]. Moreover, the AC50 under setting [2] was 29.1 µM [falling, single point]. With `COC(=O)c1cn(C(=O)c2ccc(F)cc2)c2ccccc12`, the cell number change is -6.91%. Besides, the AC50 under setting [2] is 0.116 µM [falling, full curve, poor fit]. Consider `O=C(CC(Nc1ccccc1)c1ccccc1)C1CC1` (stereo not drawn), for which the cell number change came out at 16.1%. Also, the AC50 under setting [2] is 3.66 µM [rising, full curve, poor fit]. Turning to `CC1(C)CCc2c([nH]c3ccccc3c2=O)O1`, the cell number change was -69.1%. For the same molecule, the concentration at half-maximal activity (AC50) under setting [1] is 0.103 µM [falling, full curve, poor fit]. Moreover, the AC50 under setting [2] was 0.184 µM [falling, full curve]. Consider `Cc1ccc(-c2csc(NC(=O)CN3C(=O)CCC3=O)n2)cc1`, for which the cell number change was -20.2%. The AC50 under setting [2] is 1.64 µM [falling, single point]. `COc1ccc2c(c1OC)C(=O)N1c3ccccc3COC21` (stereo not drawn): the cell number change was determined as 1.35%. The AC50 under setting [2] is 2.59 µM [rising, partial curve].

Turning to `CCCNc1nc2c(c(=O)n(C)c(=O)n2C)n1CCc1ccccc1`, the cell number change is -23.5%. Also, under setting [2], the AC50 was 29.1 µM [falling, single point].

As for `CCN(C(=O)COC(=O)C1CCN(S(=O)(=O)c2ccc3c(c2)OCCO3)CC1)C1CCS(=O)(=O)C1` (stereo not drawn), the AC50 under setting [2] is 0.13 µM [rising, full curve, poor fit]. With `CCOC(=O)C1=C(C)NC(=O)C(C(N)=O)C1c1ccccc1` (stereo not drawn), the cell number change was -0.626%. Besides, the half-maximal activity concentration (AC50) under setting [2] is 1.46 µM [falling, full curve, poor fit]. Take `Cc1ccc(Oc2ncnc3sccc23)cc1`: the cell number change was -8.78%. In addition, the half-maximal activity concentration (AC50) under setting [2] is 0.103 µM [falling, full curve, poor fit]. Regarding `CCOc1ccc(Br)cc1S(=O)(=O)Nc1ccc(N2CCOCC2)cc1`, the AC50 is 0.82 µM [rising, partial curve] under setting [1] and 1.3 µM [rising, full curve] under setting [2]. On to `COc1ccc(CNC(=O)CSc2nc3ccc(N)cc3s2)cc1`, for which the cell number change is -7.71%. Also, the AC50 under setting [1] is 0.731 µM [rising, partial curve, poor fit].

On to `CC(=O)NC(Cc1ccccc1F)C(=O)NC1CCN(c2ncccc2[N+](=O)[O-])CC1` (stereo not drawn), for which the cell number change was 15.8%. Further, under setting [2], the AC50 was 14.6 µM [rising, single point]. With `COC(CNC(=O)c1ccc2c(c1)nc(C)n2-c1cc(C)cc(C)c1)OC`, the cell number change amounted to 1.3%. For the same molecule, the AC50 under setting [2] was 0.58 µM [falling, full curve]. Regarding `O=C(/C=C/c1ccc(Cl)cc1)N1CCN(c2ccc(Cl)cc2[N+](=O)[O-])CC1`, the cell number change stood at 62.7%. Further, the AC50 under setting [1] is 29.1 µM [rising, single point]. Turning to `Cc1nc2ccccc2c(=O)n1/N=C/c1cn(-c2ccccc2)nc1-c1cccs1`, the cell number change turned out to be 13.6%. The AC50 under setting [2] is 29.1 µM [rising, partial curve].

As to `O=C(c1ccc(NS(=O)(=O)c2ccccc2)cc1)N1CCCCCC1`, the cell number change was found to be 12.4%. Also, under setting [2], the AC50 was 29.1 µM [falling, single point].

For the molecule `Cn1c(CCN2CCCCC2)nc2cc(NC(=O)NC3CCCCC3)ccc21`, the cell number change amounted to 0.952%. As to `O=C(COC(=O)/C=C/c1cccc(Cl)c1)NCCc1ccccc1`, the cell number change was found to be 16.7%. Under setting [2], the AC50 was 23.1 µM [rising, single point].

For `Cc1cc2c(cc1C)N(CC(=O)N1CCCC1)C(=O)CC(c1ccccc1)=N2`, the cell number change worked out at 83.9%. Also, the AC50 under setting [1] was 7.31 µM [rising, partial curve, poor fit]. On to `COc1cc(NC(=O)CSc2nc(C)cc(C)n2)cc(OC)c1OC`, for which the cell number change was determined as 5.85%. Also, the AC50 under setting [1] is 0.103 µM [falling, full curve, poor fit]. In addition, the AC50 under setting [2] was 0.103 µM [falling, full curve, poor fit].

Turning to `Cc1cc(OC(C)C(=O)NCC2CCC(C(=O)O)CC2)c2c(C)c(Cc3ccccc3)c(=O)oc2c1` (stereo not drawn), the cell number change was -13.3%. As for `CCCCC(=O)NC(c1cccc([N+](=O)[O-])c1)c1c(OC(C)=O)ccc2ccccc12` (stereo not drawn), the cell number change is -25.3%. The AC50 under setting [2] was 29.1 µM [falling, single point]. For `Cc1nc(Nc2c(Cl)cccc2Cl)sc1C(=O)Nc1ccccc1`, the cell number change is -19.5%. Further, the AC50 under setting [2] is 23.1 µM [falling, single point]. As for `COc1cccc(OCCn2cc(/C=N/NC(=O)c3ccncc3)c3ccccc32)c1`, the cell number change was -3.05%. Further, the AC50 under setting [2] is 3.66 µM [rising, single point].

Consider `COc1c(F)c(F)c(C(=O)Nc2ccc(N3CCN(Cc4ccccc4)CC3)cc2)c(F)c1F`, for which the cell number change came to 20.3%. For `CCc1ccccc1NC(=O)CN(C)C(=O)Cn1ncc(Cl)c(Cl)c1=O`, the cell number change was -19.9%. In addition, the half-maximal activity concentration (AC50) under setting [2] was 9.2 µM [falling, partial curve].

In the case of `COc1ccccc1C(C)NS(=O)(=O)c1ccc(Cl)nc1` (stereo not drawn), the cell number change stood at 0.514%. In addition, the AC50 under setting [2] was 4.61 µM [rising, single point].

The values are drawn from PubChem BioAssay AID2685 (National Center for Advancing Translational Sciences (NCATS), 2010).
